Results from the supplement of paper PMC10849652.
The list shows a part of the results. Residues, ends and D or L forms follow the SMILES beside them. *: point of attachment. Cbz = O=C(OCc1ccccc1)*

Sequences of proteins named here, by UniProt entry; tags and fusion partners are left off. A change or cut given only in a name is not applied to a line headed by its entry.
UniProt Q92562: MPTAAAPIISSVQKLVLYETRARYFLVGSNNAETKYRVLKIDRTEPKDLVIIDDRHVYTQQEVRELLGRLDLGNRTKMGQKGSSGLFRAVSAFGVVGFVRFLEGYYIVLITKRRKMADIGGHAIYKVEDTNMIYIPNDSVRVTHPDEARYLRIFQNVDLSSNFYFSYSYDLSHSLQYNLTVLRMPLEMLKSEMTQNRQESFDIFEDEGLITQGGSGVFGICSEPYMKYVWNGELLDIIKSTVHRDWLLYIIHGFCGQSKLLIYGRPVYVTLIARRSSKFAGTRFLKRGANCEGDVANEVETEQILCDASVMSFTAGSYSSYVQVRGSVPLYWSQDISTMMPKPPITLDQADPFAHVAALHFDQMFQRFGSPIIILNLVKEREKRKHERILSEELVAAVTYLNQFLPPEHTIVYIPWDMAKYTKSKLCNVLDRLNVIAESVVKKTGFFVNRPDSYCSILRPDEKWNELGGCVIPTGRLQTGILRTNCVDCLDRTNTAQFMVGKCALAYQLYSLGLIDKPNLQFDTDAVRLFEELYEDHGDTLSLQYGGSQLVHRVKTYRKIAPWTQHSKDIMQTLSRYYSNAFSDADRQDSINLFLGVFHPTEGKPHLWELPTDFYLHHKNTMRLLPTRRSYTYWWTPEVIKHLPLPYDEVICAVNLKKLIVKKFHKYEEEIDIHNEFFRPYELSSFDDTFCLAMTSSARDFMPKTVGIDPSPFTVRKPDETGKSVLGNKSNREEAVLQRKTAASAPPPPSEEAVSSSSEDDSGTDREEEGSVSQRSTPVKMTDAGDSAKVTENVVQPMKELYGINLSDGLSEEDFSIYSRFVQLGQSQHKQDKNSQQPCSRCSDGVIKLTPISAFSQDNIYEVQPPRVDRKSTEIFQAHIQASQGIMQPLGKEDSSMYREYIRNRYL
UniProt Q9UHY8: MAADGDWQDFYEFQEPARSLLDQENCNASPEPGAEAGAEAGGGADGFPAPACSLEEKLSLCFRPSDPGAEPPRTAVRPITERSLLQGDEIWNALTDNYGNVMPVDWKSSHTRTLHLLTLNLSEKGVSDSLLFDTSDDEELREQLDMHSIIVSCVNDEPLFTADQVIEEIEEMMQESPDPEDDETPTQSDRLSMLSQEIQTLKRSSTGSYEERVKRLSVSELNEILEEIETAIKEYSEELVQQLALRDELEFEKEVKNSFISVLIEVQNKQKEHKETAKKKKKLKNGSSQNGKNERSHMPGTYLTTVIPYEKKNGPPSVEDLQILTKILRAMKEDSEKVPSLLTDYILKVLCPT
UniProt Q86XK2: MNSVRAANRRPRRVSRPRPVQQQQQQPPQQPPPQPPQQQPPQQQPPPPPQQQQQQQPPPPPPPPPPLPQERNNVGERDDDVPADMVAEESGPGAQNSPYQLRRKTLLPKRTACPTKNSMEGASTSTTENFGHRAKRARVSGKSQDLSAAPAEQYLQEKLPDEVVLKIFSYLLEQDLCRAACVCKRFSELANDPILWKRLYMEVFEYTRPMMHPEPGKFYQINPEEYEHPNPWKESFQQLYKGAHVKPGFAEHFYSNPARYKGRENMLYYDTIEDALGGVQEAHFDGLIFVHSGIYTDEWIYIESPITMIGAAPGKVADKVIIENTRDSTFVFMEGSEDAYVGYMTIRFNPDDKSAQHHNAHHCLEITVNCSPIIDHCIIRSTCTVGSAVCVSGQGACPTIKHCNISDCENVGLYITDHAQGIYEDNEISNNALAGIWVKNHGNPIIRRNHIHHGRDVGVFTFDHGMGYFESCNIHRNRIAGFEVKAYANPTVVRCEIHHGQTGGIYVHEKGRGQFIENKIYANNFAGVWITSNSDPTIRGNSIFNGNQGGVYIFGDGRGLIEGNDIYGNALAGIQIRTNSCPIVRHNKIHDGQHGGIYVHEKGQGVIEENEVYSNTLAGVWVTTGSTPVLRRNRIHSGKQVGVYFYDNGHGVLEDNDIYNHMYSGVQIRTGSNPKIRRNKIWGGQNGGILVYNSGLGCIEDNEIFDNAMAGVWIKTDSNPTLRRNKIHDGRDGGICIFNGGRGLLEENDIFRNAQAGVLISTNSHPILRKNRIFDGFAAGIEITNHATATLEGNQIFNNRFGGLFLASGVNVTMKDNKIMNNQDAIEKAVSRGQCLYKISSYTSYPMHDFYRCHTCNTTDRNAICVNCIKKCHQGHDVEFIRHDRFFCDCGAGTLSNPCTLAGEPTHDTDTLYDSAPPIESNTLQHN
UniProt Q14153: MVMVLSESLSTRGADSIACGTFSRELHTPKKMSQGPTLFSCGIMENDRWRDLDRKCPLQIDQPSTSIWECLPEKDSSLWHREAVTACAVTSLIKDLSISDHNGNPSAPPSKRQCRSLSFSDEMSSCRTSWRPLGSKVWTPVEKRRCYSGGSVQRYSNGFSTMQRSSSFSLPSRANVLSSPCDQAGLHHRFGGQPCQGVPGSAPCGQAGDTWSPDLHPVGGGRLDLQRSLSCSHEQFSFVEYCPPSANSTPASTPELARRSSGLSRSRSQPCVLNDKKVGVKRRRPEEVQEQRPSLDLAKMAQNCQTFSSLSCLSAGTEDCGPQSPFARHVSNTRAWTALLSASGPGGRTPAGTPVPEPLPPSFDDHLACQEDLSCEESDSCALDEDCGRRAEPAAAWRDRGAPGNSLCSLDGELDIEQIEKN
UniProt O95466, whole entry, looked up: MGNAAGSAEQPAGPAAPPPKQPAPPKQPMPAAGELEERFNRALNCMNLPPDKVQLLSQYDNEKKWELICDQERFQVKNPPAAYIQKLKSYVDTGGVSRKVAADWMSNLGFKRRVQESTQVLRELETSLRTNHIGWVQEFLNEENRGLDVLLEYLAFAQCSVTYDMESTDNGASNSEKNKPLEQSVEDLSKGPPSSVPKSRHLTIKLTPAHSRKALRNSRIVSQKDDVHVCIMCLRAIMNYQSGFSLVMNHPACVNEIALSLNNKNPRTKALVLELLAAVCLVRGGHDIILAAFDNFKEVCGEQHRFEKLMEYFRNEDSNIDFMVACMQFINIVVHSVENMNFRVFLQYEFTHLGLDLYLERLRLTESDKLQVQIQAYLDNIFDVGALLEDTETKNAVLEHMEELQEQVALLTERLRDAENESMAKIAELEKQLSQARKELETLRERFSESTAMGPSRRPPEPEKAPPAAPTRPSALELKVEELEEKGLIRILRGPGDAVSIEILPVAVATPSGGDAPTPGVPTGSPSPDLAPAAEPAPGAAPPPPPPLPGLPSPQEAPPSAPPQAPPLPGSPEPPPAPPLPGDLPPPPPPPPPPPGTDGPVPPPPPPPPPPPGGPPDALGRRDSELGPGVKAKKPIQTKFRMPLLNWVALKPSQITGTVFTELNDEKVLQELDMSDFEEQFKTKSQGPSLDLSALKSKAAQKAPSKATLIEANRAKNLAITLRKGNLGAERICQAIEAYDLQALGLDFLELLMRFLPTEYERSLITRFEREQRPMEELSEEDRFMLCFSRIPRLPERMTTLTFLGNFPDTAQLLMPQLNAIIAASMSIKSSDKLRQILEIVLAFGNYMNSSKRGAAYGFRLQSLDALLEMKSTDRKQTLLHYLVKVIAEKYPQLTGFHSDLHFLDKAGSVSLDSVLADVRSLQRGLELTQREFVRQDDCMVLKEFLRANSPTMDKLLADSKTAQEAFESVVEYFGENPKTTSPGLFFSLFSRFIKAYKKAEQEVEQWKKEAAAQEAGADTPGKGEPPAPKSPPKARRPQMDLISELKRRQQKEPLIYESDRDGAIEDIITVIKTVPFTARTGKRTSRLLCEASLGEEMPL
UniProt Q96RU3: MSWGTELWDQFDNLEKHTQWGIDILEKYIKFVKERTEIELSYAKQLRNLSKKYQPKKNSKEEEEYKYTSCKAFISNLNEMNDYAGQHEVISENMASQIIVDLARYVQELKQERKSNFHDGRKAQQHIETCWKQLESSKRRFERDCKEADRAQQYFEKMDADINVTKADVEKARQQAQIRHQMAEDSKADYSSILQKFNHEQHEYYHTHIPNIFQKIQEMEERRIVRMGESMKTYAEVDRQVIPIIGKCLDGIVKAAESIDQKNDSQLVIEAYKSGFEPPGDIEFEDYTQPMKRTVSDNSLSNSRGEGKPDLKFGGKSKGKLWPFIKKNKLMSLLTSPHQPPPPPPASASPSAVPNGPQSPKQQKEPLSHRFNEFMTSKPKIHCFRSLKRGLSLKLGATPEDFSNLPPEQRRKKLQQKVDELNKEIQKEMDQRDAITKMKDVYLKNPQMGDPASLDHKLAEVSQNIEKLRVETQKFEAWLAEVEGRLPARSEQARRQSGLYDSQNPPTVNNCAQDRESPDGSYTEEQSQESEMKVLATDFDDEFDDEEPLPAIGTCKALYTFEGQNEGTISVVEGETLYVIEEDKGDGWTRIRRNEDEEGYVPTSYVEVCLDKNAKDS
UniProt Q9Y2H6: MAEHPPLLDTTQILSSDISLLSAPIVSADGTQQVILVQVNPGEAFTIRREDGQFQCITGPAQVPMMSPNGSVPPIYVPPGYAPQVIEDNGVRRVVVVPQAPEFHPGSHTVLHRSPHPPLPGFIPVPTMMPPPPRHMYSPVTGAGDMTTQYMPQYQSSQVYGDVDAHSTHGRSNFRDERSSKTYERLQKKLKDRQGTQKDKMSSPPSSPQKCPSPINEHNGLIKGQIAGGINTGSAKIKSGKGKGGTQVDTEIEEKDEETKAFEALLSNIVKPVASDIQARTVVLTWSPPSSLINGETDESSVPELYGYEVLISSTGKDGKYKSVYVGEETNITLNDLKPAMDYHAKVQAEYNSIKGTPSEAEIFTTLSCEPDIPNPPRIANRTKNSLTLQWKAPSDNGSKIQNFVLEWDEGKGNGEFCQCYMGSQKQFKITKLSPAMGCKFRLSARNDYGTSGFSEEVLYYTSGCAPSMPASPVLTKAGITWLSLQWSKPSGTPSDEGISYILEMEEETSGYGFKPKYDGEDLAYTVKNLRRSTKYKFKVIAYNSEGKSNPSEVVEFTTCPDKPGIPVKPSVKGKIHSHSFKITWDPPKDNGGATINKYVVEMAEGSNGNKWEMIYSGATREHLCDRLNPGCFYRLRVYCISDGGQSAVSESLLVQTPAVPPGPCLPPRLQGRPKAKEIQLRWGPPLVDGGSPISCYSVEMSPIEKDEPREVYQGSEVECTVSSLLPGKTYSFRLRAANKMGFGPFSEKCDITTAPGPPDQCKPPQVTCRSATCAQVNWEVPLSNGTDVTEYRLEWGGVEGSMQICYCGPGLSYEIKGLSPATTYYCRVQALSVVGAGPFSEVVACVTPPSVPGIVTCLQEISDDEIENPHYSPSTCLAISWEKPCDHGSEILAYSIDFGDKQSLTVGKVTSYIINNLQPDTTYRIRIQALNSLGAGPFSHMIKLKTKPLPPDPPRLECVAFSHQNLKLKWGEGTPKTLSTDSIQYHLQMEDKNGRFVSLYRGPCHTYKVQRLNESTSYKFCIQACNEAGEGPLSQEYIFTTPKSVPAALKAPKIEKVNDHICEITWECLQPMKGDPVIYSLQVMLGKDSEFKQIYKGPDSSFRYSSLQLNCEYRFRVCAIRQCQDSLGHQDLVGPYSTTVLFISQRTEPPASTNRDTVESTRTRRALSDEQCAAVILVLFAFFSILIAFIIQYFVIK
UniProt Q8N6M3: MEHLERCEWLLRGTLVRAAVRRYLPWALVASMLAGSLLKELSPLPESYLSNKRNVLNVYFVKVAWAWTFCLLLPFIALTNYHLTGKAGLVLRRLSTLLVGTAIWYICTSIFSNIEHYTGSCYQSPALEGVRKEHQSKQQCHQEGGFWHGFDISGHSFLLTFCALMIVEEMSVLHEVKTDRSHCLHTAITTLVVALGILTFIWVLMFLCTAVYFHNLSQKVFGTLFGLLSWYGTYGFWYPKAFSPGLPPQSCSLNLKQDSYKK
UniProt Q96SL8: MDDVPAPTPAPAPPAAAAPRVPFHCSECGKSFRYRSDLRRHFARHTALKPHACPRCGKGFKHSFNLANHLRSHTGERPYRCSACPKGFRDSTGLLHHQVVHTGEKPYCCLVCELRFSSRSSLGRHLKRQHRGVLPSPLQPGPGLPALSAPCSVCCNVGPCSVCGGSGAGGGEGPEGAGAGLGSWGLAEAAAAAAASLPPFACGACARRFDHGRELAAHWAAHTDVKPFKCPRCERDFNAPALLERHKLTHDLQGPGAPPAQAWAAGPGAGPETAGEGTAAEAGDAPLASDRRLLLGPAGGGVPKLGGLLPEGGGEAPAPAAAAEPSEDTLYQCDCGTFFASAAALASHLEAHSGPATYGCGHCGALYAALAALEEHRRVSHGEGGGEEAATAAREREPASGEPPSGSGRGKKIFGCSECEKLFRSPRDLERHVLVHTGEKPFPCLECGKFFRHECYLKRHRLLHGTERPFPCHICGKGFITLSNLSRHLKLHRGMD

Columns and labels:
Test in all cases: log2 fold change, soluble protein after heating vs DMSO (PISA); higher = thermal stabilisation; K562 cells, 10 uM, 30 min; active = over 0.2 and 3.5 SD of the protein, either way, in both replicates (recomputed)
[1] = compound: C/C(=N\NC(=O)C1=CC(=CC=C1)S(=O)(=O)N2CCOCC2)/C3=C(C=CC(=C3)Cl)O
How it was run: (§1)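 Quantification of soluble protein used TMTpro 16plex LC-MS/MS, with channel sums equalised. Samples were the supernatant after 21,000xg for 90 min of pooled aliquots from K562 cells (2×10^6 cells/mL) treated with 10 μM compound for 30 min, heated for 3 min over 48°C-58°C, and extracted in PBS with 0.5% NP-40 at 4°C. Values, from duplicates, describe thermal stability against control samples on a log2 fold-change scale.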

[2] = compound: C1=CC2=C(C=CC(=C2)/C=C\3/C(=O)NC(=NCC4=CC=CS4)S3)N=C1
How it was run: as §1

[3] = compound: C1=CC=C2C(=C1)C3=NNC4=CC=CC(=C43)C2=O
How it was run: as §1

[4] = compound: CC(=O)c1cnc2ccc(-c3cc(Cl)c(O)c(Cl)c3)nc2c1N[C@H]1CC[C@H](CN(C)C)CC1
How it was run: as §1

[5] = compound: C1=CC(=C(C=C1Cl)C2=NC3=NC=CN=C3C(=N2)NC4=CC=NC=C4)F
How it was run: as §1

[6] = compound: C1CCN(C1)C(=O)NC2=CC=CC(=C2)NC3=NC=C(C(=N3)NCCC4=CN=CN4)Br
How it was run: as §1

[7] = compound: C1CN(CCC1(CC2=CC=C(C=C2)Cl)N)C3=NC=NC4=C3C=CN4
How it was run: as §1

[8] = compound: CC(C)(O)CC(=O)NCCn1ccc2ncnc(Nc3ccc(Oc4cccc(C(F)(F)F)c4)c(Cl)c3)c21
How it was run: as §1

[9] = compound: CC1=C(C2=C(C=C1)C(=O)C3=CC=CC=C3N2CCCN)C
How it was run: as §1

[10] = compound: C#Cc1cccc(Nc2ncnc3cc(OCCOC)c(OCCOC)cc23)c1 [erlotinib]
How it was run: as §1

[11] = compound: C1=CC(=CC=C1C2=NC3=C(N2)C=C(C=C3)C(=O)N)OC4=CC=C(C=C4)Cl
How it was run: as §1

[12] = compound: CC(C)C1=C2N=C(C=C(N2N=C1)NCC3=CC=CC=C3)NCCCCCCN
How it was run: as §1

[13] = compound: C1=CC2=NC=CN=C2C=C1/C=C/3\C(=O)NC(=O)S3
How it was run: as §1

[14] = compound: C1=CC=C(C=C1)C2=NC(=C(N2)C3=CC=NC=C3)C4=CC(=C(C=C4)Cl)O
How it was run: as §1

[15] = compound: C1COCCN1CCN2C3=CC=CC=C3N=C2NC(=O)C4=CC(=CC=C4)[N+](=O)[O-] [IRAK-1-4 Inhibitor I]
How it was run: as §1

[16] = compound: C=CC(=O)N1CCC[C@@H](n2nc(-c3ccc(Oc4ccccc4)cc3)c3c(N)ncnc32)C1 [ibrutinib]
How it was run: as §1

[17] = compound: CC(C)(C)Cn1c(N)nc2ccc(-c3[nH]c(C(C)(C)C)nc3-c3ccc(F)cc3)nc21 [ralimetinib]
How it was run: as §1

[18] = compound: CC(C)C[C@@H](C=O)NC(=O)[C@H](CC(C)C)NC(=O)[C@H](CC(C)C)NC(=O)OCc1ccccc1
How it was run: as §1

[19] = compound: CC(C)N(C[C@H]1O[C@@H](n2cnc3c(N)ncnc32)[C@H](O)[C@@H]1O)[C@H]1C[C@@H](CCc2nc3cc(C(C)(C)C)ccc3[nH]2)C1 [pinometostat]
How it was run: as §1

[20] = compound: CC1=C(C(CC(=O)N1)C2=CC=C(C=C2)C(F)(F)F)C(=O)NC3=C(C=C4C(=C3)C=NN4)F
How it was run: as §1

Measured: log2 fold change

FMOD (UniProt Q06828)
inactive: [1] 0.017 | [2] 0.202 | [3] -0.064 | [4] 0.006

FAM83G (UniProt A6ND36)
inactive: [5] 0.263 | [6] 0.005 | [7] 0.036 | [8] 0.136 | [9] 0.131

FIG4 (UniProt Q92562)
inactive: [10] -0.073 | [11] -0.068 | [12] -0.084

FEZ2 isoform 2 (UniProt Q9UHY8)
inactive: [1] -0.073 | [2] 0.049 | [13] 0.176 | [14] 0.056 | [3] 0.049 | [15] 0.003 | [16] -0.054 | [4] -0.064 | [17] 0.094 | [18] 0.015 | [19] -0.035 | [20] -0.003

FBXO11 isoform 5 (UniProt Q86XK2)
inactive: [10] 0 | [5] -0.19 | [11] 0.261 | [6] 0.052 | [7] -0.03 | [8] 0.053 | [12] -0.317 | [9] -0.246

FAM53B (UniProt Q14153)
inactive: [10] 0.03 | [5] 0.002 | [11] -0.089 | [14] -0.05 | [15] 0.037 | [17] 0.023 | [8] -0.007 | [12] -0.003 | [18] 0.007 | [19] 0.015

FHAD1 isoform 3 (UniProt B1AJZ9)
inactive: [1] -0.176 | [2] 0.245 | [13] 0.153 | [14] 0.196 | [3] -0.019 | [6] 0.151 | [7] 0.135 | [15] 0.092 | [16] 0.266 | [4] -0.092 | [17] 0.069 | [18] -0.029 | [19] -0.147 | [9] -0.138

FMNL1 isoform 3 (UniProt O95466)
inactive: [1] -0.01 | [5] -0.185 | [2] 0.016 | [13] -0.186 | [3] -0.112 | [16] 0.114 | [4] -0.197 | [8] 0.341

FNBP1 (UniProt Q96RU3)
inactive: [1] 0.103 | [2] 0.046 | [3] -0.118 | [6] -0.378 | [7] 0.064 | [4] -0.051 | [9] -0.22

FNIP1 (UniProt Q8TF40)
inactive: [10] 0.06 | [5] 0.097 | [11] -0.118 | [13] 0.014 | [14] -0.096 | [6] 0.073 | [7] -0.07 | [16] 0.233 | [17] -0.054 | [8] 0.114 | [12] 0.066 | [18] -0.116 | [9] -0.042

FNDC3A (UniProt Q9Y2H6)
inactive: [6] 0.182 | [7] 0.146 | [9] 0.021

FARP2 (UniProt O94887)
inactive: [1] -0.004 | [2] 0.111 | [3] 0.036 | [6] 0.18 | [7] 0.019 | [4] -0.059 | [9] 0.041

FITM2 (UniProt Q8N6M3)
inactive: [10] -0.016 | [11] 0.09 | [13] -0.011 | [16] 0.118 | [12] -0.232 | [20] -0.038

FAT1 (UniProt Q14517)
inactive: [10] -0.06 | [5] -0.062 | [11] 0.161 | [13] -0.08 | [14] 0.045 | [6] -0.123 | [7] 0.066 | [15] 0.028 | [16] 0.151 | [8] 0.01 | [12] 0.162 | [18] 0.683 | [19] -0.095 | [9] 0.091
active: [17] -0.448

FIZ1 (UniProt Q96SL8)
inactive: [5] -0.272 | [15] -0.14 | [8] 0.017 | [19] 0.123

2 entries picked at random from those above, as already listed:
FITM2 (UniProt Q8N6M3)
inactive: [10] -0.016 | [11] 0.09 | [13] -0.011 | [16] 0.118 | [12] -0.232 | [20] -0.038

FIZ1 (UniProt Q96SL8)
inactive: [5] -0.272 | [15] -0.14 | [8] 0.017 | [19] 0.123
